# From the supplement of paper PMC6411743
# Chains of the proteins cited; added tags and fusions are not shown. Lines headed by an entry give the natural chain unless they say otherwise; changes in a name come on top.
# UniProt Q9H6W3: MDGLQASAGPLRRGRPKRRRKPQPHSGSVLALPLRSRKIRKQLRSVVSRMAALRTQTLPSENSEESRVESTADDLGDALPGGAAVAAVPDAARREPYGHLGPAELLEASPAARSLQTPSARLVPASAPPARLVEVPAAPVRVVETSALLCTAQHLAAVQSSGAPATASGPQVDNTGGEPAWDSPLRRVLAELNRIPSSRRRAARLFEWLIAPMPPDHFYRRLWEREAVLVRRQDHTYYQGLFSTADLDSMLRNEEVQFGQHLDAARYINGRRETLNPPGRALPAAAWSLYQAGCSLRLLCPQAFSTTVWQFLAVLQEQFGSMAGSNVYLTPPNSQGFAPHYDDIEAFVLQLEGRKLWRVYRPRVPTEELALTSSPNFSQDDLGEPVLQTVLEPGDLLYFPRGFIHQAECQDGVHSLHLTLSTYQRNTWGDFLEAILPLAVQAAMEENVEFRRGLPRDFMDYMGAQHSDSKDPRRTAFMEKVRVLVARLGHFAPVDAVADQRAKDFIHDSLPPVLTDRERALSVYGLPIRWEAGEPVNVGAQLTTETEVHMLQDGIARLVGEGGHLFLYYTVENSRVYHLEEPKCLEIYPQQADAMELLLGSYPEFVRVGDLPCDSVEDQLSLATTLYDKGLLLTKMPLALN
# UniProt Q9H2U1: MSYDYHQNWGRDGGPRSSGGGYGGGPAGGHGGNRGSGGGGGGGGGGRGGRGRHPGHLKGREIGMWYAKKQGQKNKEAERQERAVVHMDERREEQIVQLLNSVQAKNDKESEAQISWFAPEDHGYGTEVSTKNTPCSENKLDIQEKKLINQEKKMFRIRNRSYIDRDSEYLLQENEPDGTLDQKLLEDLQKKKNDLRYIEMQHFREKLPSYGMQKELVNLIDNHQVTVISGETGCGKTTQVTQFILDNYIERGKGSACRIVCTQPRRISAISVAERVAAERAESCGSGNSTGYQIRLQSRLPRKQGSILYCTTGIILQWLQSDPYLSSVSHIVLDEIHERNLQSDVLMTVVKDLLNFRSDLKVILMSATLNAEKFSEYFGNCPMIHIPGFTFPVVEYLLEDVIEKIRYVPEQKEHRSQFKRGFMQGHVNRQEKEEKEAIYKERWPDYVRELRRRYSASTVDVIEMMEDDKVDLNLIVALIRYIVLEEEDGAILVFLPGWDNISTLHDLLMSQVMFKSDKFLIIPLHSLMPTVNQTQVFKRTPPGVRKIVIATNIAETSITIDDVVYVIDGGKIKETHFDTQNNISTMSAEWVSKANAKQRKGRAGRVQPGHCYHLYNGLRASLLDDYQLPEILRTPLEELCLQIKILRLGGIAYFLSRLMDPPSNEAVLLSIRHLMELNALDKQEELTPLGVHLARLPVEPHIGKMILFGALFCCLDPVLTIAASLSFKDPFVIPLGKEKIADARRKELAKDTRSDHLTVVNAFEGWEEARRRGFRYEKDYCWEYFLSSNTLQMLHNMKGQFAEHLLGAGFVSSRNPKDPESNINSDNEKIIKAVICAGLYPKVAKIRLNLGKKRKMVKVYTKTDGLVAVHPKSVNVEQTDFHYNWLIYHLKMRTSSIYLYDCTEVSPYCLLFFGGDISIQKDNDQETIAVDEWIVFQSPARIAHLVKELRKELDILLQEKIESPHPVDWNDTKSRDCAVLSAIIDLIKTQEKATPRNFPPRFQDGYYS
# UniProt Q9H7E9: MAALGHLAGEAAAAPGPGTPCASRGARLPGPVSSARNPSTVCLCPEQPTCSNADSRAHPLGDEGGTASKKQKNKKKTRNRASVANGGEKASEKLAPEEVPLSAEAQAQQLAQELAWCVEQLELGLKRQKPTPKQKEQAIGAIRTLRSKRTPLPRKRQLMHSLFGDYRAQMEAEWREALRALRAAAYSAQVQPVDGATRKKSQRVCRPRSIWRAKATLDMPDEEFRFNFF
# UniProt Q9H4L4: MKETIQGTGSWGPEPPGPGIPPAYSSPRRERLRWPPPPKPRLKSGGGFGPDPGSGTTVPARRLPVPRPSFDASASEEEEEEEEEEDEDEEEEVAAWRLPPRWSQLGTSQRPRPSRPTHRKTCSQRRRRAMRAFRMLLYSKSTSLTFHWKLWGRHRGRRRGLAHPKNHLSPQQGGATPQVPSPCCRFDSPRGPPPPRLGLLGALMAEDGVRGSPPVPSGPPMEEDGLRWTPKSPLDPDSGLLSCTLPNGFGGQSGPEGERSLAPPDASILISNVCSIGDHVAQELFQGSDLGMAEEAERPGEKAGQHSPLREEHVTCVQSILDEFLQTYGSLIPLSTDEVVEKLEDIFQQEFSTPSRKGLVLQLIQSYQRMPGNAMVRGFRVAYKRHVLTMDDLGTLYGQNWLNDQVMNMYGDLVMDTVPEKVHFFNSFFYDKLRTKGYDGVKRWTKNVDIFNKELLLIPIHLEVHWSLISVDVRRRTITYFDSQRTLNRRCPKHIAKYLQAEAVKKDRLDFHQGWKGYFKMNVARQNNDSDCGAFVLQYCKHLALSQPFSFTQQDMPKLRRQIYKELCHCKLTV
# UniProt Q9H8Y5: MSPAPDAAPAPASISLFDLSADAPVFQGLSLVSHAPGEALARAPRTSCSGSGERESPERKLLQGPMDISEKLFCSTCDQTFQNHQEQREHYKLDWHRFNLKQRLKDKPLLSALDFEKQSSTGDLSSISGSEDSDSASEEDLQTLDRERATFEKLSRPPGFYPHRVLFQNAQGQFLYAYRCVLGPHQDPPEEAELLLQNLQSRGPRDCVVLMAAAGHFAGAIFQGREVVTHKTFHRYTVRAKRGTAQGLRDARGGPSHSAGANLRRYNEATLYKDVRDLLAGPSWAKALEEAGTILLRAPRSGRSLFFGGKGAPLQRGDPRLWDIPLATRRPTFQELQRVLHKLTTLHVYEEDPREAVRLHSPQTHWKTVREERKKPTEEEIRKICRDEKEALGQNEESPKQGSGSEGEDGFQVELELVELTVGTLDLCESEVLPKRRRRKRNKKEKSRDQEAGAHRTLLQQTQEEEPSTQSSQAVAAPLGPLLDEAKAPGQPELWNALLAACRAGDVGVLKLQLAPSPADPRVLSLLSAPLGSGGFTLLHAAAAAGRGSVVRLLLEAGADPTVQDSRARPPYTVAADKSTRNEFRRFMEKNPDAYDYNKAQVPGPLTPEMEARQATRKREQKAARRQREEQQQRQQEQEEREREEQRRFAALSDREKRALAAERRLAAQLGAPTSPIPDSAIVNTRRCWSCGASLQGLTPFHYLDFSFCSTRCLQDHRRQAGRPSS
# ± gives the standard deviation of the averaged measurements. The list shows a part of the results.
# Compound: Nc1nc2c(ncn2[C@@H]2O[C@H](COP(=O)(O)OP(=O)(O)OP(=O)(O)O)[C@@H](O)[C@H]2O)c(=O)[nH]1 [guanosine triphosphate]
# Assay: NP40-soluble protein abundance relative to vehicle (solubility fold change) (ratio); higher = more soluble protein in presence of GTP
# Procedure: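 Solubility proteome profiling in Jurkat crude lysate. Lysate was treated with Mg-GTP (0.1-10 mM) for 10 min at room temperature and 3 min at 37 °C, then solubilised with 0.8% NP40 and benzonase, followed by ultracentrifugation. Proteins were quantified by TMT10 LC-MS/MS; the value is the NP40-soluble abundance relative to the NP40-processed vehicle, from 3 independent experiments.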
Target,NP40-soluble protein abundance (concentration: 0.1mM),NP40-soluble protein abundance (concentration: 0.5mM),NP40-soluble protein abundance (concentration: 1mM),NP40-soluble protein abundance (concentration: 2mM),NP40-soluble protein abundance (concentration: 4mM),NP40-soluble protein abundance (concentration: 6mM),NP40-soluble protein abundance (concentration: 8mM),NP40-soluble protein abundance (concentration: 10mM)
UniProt Q9H6W3,1.01 ± 0.095,1.06 ± 0.097,1.08 ± 0.059,1.13 ± 0.041,1.2 ± 0.026,1.22 ± 0.057,1.27 ± 0.079,1.36 ± 0.082
UniProt Q9H2U1 and related entries,1.02 ± 0.027,1.07 ± 0.061,0.998 ± 0.044,1.03 ± 0.043,0.988 ± 0.042,1.03 ± 0.056,1.02 ± 0.04,0.9909 ± 0.00082
UniProt Q9H7E9 and related entries,0.991 ± 0.12,1.02 ± 0.13,1 ± 0.043,1.07 ± 0.06,0.975 ± 0.036,1.03 ± 0.07,1.17 ± 0.23,1.17 ± 0.18
SENP3 (UniProt Q9H4L4),0.973 ± 0.084,0.972 ± 0.095,0.968 ± 0.19,1.05 ± 0.22,1.01 ± 0.19,0.987 ± 0.2,1.05 ± 0.27,1.07 ± 0.11
ANKZF1 (UniProt Q9H8Y5),1.03 ± 0.069,1.04 ± 0.072,1.01 ± 0.032,0.987 ± 0.12,0.979 ± 0.062,0.988 ± 0.092,1.05 ± 0.063,1.03 ± 0.077
